Laboratory results: publication PMC7819943, “Rice protein-binding microarrays: a tool to detect cis-acting elements near promoter regions in rice”
Some of the results follow.

Sequences of proteins named here, by UniProt entry; tags and fusion partners are left off.
UniProt Q0JBA9, entry or part of it: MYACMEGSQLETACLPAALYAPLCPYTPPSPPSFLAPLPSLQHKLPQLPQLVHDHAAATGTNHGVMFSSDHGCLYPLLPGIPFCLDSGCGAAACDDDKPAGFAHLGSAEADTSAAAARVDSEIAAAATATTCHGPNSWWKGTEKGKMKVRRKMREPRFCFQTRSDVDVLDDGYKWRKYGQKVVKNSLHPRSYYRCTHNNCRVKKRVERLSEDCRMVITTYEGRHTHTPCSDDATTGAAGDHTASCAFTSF

Each sequence was assayed against OsWRKY34 (Oryza sativa, UniProt Q0JBA9 1-250) (assay: protein-binding microarray (RPBM); PBS, 2% BSA, 51.3 ng/ul salmon testes DNA, 50 uM zinc acetate, 200 nM TF, 25 C, 1 h; high values mean tight binding). Conditions: protein: recombinant; tags: N-terminal polyhistidine and DsRed monomer fusion (pET32a); label: CyDye5-dUTP incorporated in the synthesized complementary strand; 3' TTTTT single-stranded linker to array surface; dsDNA, one strand shown.
Procedure, shortened: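 Transcription factors, each fused N-terminally to a polyhistidine tag and DsRed, were expressed in E. coli BL21-CodonPlus and purified on Ni–NTA. A custom Agilent array was made double-stranded by primer extension with Cy5-dUTP and blocked with 2% BSA. It was incubated with 200 nM protein in PBS, 2% BSA, salmon testes DNA and 50 µM zinc acetate at 25 °C for 1 h, then washed. The binding signal is per-feature fluorescence intensity (arbitrary units) read on an Axon 4000B scanner.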

Sequence	binding signal
TTCGCTTCTCGGTTCTCCGCATCATCTCGGTCGATCGTAACGGAGTCACCTAGTGCAG	13000 fluorescence intensity (a.u.)
TGGGCTATTCCAATTGTTTTTAGTTTCCTTGTTGAGTATTCGGAGTCACCTAGTGCAG	10800 fluorescence intensity (a.u.)
CTCTCGTTGTTTTTGCTCTTTTGGGTTCGCTCGGAAGATGCGGAGTCACCTAGTGCAG	8490 fluorescence intensity (a.u.)
TTCTCCTTTGTTTGTGACTCTGCAAGTCATTTTATCTTTGCGGAGTCACCTAGTGCAG	8550 fluorescence intensity (a.u.)
CCACTGTTGCGAAGTCGGGTTGGTGGGTGGTTGATTGATTCGGAGTCACCTAGTGCAG	10300 fluorescence intensity (a.u.)
TTGGGCTCTTATATGGACTCTTCTTTCAATATTGCTTATTCGGAGTCACCTAGTGCAG	10500 fluorescence intensity (a.u.)
CTTTTCCCCATCCGAGCCTTGAGCTCTTCTTCTTCTCTCTCGGAGTCACCTAGTGCAG	9610 fluorescence intensity (a.u.)
CCTAAACCCACCCCACCCCACGCCGACGAAACCCTAATCCCGGAGTCACCTAGTGCAG	9960 fluorescence intensity (a.u.)
TTTTTTTCTAGAATTTTTGGTGATATCTGCTAGTTCGTGTCGGAGTCACCTAGTGCAG	8390 fluorescence intensity (a.u.)
ATCAGTAGAACTTATGGTATGGGTATCTAATCTCGTACTTCGGAGTCACCTAGTGCAG	8150 fluorescence intensity (a.u.)
GACACAACCAAAGCACCATTCTGTTGTACTCCGTTTTCCTCGGAGTCACCTAGTGCAG	8840 fluorescence intensity (a.u.)
CAGATCATGCCACTCCATTGCTGCCCCGACTGGCGCCATGCGGAGTCACCTAGTGCAG	8570 fluorescence intensity (a.u.)
CTTTTAGCATCACATCACATAATGACATTACACTCAAGTTCGGAGTCACCTAGTGCAG	9600 fluorescence intensity (a.u.)
CCTGCTTCTTCCGTGTGTGTATATATCCACCCTCCACCTCCGGAGTCACCTAGTGCAG	9450 fluorescence intensity (a.u.)
CTGTTCTTCTACGGTTTCTTGGTTAGGTTGCTTGCAGAGACGGAGTCACCTAGTGCAG	8920 fluorescence intensity (a.u.)
TCCGAGGCAGATCTCCACACGTATCTCCGCACTTGACTTTCGGAGTCACCTAGTGCAG	9700 fluorescence intensity (a.u.)
TCTTGTGGTTTTGGATCGGGTTGGTGGTGGTGGTGGAGCTCGGAGTCACCTAGTGCAG	15700 fluorescence intensity (a.u.)
GATGTACTCCTACCTTGGGAATGGTCGTTCTCACTTCCGTCGGAGTCACCTAGTGCAG	9840 fluorescence intensity (a.u.)
GCGCCACCAACACACTACACTAGCAAGCTTGGTACTAATCCGGAGTCACCTAGTGCAG	9400 fluorescence intensity (a.u.)
AAATGATTTTCTCTTCTTCTTTTTTTTTGTTCGGCAGAGACGGAGTCACCTAGTGCAG	8190 fluorescence intensity (a.u.)
GGTTTCTCACCTGGATTTGTGCCATTTGGTTGTACTTGTACGGAGTCACCTAGTGCAG	10200 fluorescence intensity (a.u.)

A second format for part of the listing above:
Sequence | binding signal
TTCGCTTCTCGGTTCTCCGCATCATCTCGGTCGATCGTAACGGAGTCACCTAGTGCAG | 13000 fluorescence intensity (a.u.)
CTCTCGTTGTTTTTGCTCTTTTGGGTTCGCTCGGAAGATGCGGAGTCACCTAGTGCAG | 8490 fluorescence intensity (a.u.)
CCACTGTTGCGAAGTCGGGTTGGTGGGTGGTTGATTGATTCGGAGTCACCTAGTGCAG | 10300 fluorescence intensity (a.u.)
CTTTTCCCCATCCGAGCCTTGAGCTCTTCTTCTTCTCTCTCGGAGTCACCTAGTGCAG | 9610 fluorescence intensity (a.u.)
CCTAAACCCACCCCACCCCACGCCGACGAAACCCTAATCCCGGAGTCACCTAGTGCAG | 9960 fluorescence intensity (a.u.)
TTTTTTTCTAGAATTTTTGGTGATATCTGCTAGTTCGTGTCGGAGTCACCTAGTGCAG | 8390 fluorescence intensity (a.u.)
ATCAGTAGAACTTATGGTATGGGTATCTAATCTCGTACTTCGGAGTCACCTAGTGCAG | 8150 fluorescence intensity (a.u.)
CAGATCATGCCACTCCATTGCTGCCCCGACTGGCGCCATGCGGAGTCACCTAGTGCAG | 8570 fluorescence intensity (a.u.)
CCTGCTTCTTCCGTGTGTGTATATATCCACCCTCCACCTCCGGAGTCACCTAGTGCAG | 9450 fluorescence intensity (a.u.)
TCCGAGGCAGATCTCCACACGTATCTCCGCACTTGACTTTCGGAGTCACCTAGTGCAG | 9700 fluorescence intensity (a.u.)
GATGTACTCCTACCTTGGGAATGGTCGTTCTCACTTCCGTCGGAGTCACCTAGTGCAG | 9840 fluorescence intensity (a.u.)
AAATGATTTTCTCTTCTTCTTTTTTTTTGTTCGGCAGAGACGGAGTCACCTAGTGCAG | 8190 fluorescence intensity (a.u.)
GGTTTCTCACCTGGATTTGTGCCATTTGGTTGTACTTGTACGGAGTCACCTAGTGCAG | 10200 fluorescence intensity (a.u.)

The listing continues.

Sequence	binding signal
CATGGCTTTGTGTTAACTGTGAACTCCCTCATCCCTTCTTCGGAGTCACCTAGTGCAG	11600 fluorescence intensity (a.u.)
TTTCCTCCGTTTCACAATGTAAGTCATTCTAGTATTTCCTCGGAGTCACCTAGTGCAG	9570 fluorescence intensity (a.u.)
GTTCTTGTAGCAAATGGATCCAGTTTTTCGATGAAATTTCCGGAGTCACCTAGTGCAG	8740 fluorescence intensity (a.u.)
TGTTAGGGTGGGGTACTGCCTACGTGGGCCAATGCCTTCTCGGAGTCACCTAGTGCAG	12300 fluorescence intensity (a.u.)
TTGTGTACTTGTAGAGAATATTTGACTATACATCCTGTTCCGGAGTCACCTAGTGCAG	8830 fluorescence intensity (a.u.)
CGGATTCCTGATTTCCCAGTCTCTGGCTTTCTTTTTAAACCGGAGTCACCTAGTGCAG	8270 fluorescence intensity (a.u.)
CTCGTCCACCCTTTTCTGCTCCATGTTTTCATCATCATCTCGGAGTCACCTAGTGCAG	11900 fluorescence intensity (a.u.)
GGCGCGGGGTAGTGGTGGGGATGAAAATGATAGAAAGTTACGGAGTCACCTAGTGCAG	12300 fluorescence intensity (a.u.)
TGTAATTTTTTTTGGCGCACTGCTTTTGCCTACCATCTCTCGGAGTCACCTAGTGCAG	13100 fluorescence intensity (a.u.)
TTTTGTTTTCTTTCGATTGCCTTTGCAAATCGCAATTCTTCGGAGTCACCTAGTGCAG	11000 fluorescence intensity (a.u.)
CCGCGTCGTCGTCGTCTCCGGCCTCCGCTTCCTCGCCGACCGGAGTCACCTAGTGCAG	9910 fluorescence intensity (a.u.)
TGGTGTGTGAGGAAGAGAGCGCGCGGCGTTGTTGGGTGTGCGGAGTCACCTAGTGCAG	8470 fluorescence intensity (a.u.)
TTACTGTTGCTGGCCCCAACCACCCTGCATGGATTACAACCGGAGTCACCTAGTGCAG	8340 fluorescence intensity (a.u.)
TTCTTCTCTACTAGTATATCACTTCCGAATTCCAACAAGACGGAGTCACCTAGTGCAG	9280 fluorescence intensity (a.u.)
GCCGCCGCCGCCGCCTTCGCCGCCGTTTGGTCTCGTCGCCCGGAGTCACCTAGTGCAG	8090 fluorescence intensity (a.u.)
AACGCTCTACTGGATCCAAAATTCCCCATCATATAACAAGCGGAGTCACCTAGTGCAG	8250 fluorescence intensity (a.u.)
AACTCAAAATTTTTAACTAAATTTTAAAATTTTTTGACTCCGGAGTCACCTAGTGCAG	8270 fluorescence intensity (a.u.)
TAGTGATGTATACACTTCCTTTATCACTTTTGTTTGCATTCGGAGTCACCTAGTGCAG	9990 fluorescence intensity (a.u.)
CTAGGGAGGAGGTGGGGTCTGGCCGGGGCTAAGGACATCTCGGAGTCACCTAGTGCAG	11600 fluorescence intensity (a.u.)
AATCGATGAGGCCCTACGTGTGTTTTCTGTCAGCTTGCTACGGAGTCACCTAGTGCAG	8880 fluorescence intensity (a.u.)
TCCTCGTCGTCTCCTCCGCTCCTCGTGCCATCTCGCGGCTCGGAGTCACCTAGTGCAG	9120 fluorescence intensity (a.u.)

Sequence	binding signal
CACCTAGTATACTCACAATGTTTCACTATGTATAGATCTACGGAGTCACCTAGTGCAG	9570 fluorescence intensity (a.u.)
TCCTACAGCTTTGCCCGCACCGCTCCGTCGTCCCGGCCGTCGGAGTCACCTAGTGCAG	8210 fluorescence intensity (a.u.)
ACCGATTTTTGAGTTATCTACATTGCCTTGCAACTATACCCGGAGTCACCTAGTGCAG	9350 fluorescence intensity (a.u.)
CGTTTTTTAATAGATGACGCCGTTGACTTTTTCTCACATGCGGAGTCACCTAGTGCAG	31400 fluorescence intensity (a.u.)
TTTTGTTCGCTACTATAGGCCCACACGTCTGTGCCCATGGCGGAGTCACCTAGTGCAG	8660 fluorescence intensity (a.u.)
CCGCGGACGAACCCTCCTACTCTTCTTCTTCTTCTTGTGTCGGAGTCACCTAGTGCAG	9420 fluorescence intensity (a.u.)
TTGTTTGTAAATATACCGTTTGTCTTTTTTCTGTGAATAACGGAGTCACCTAGTGCAG	8360 fluorescence intensity (a.u.)
GTGGGTGTTCGCTACAATGCCATTTTCACCATTGGTTGCACGGAGTCACCTAGTGCAG	10700 fluorescence intensity (a.u.)
ATCAACAAGCACGTCTTCTTTTTTTTTGAGAAGCTGACTTCGGAGTCACCTAGTGCAG	8240 fluorescence intensity (a.u.)
CCAATTCCTCTTGTTTCTTTTCAAAAAAGTTTTTTTTTGCCGGAGTCACCTAGTGCAG	10000 fluorescence intensity (a.u.)
ACTTGGGTATAATGTGGATATTAACTTTTTATGGTATTAACGGAGTCACCTAGTGCAG	10700 fluorescence intensity (a.u.)
TGTTCATTGTCTACTTCTGTAATGTTCTTGAGGGCAAAGGCGGAGTCACCTAGTGCAG	8970 fluorescence intensity (a.u.)
GAACAAGTTGATGCACTGTTCTGTTTACCTCTTAATATGACGGAGTCACCTAGTGCAG	8340 fluorescence intensity (a.u.)
ATTATTTCTTGCTGGATAGGTTCATGGTTTTGCCAAAATTCGGAGTCACCTAGTGCAG	10800 fluorescence intensity (a.u.)
CAAGCACTTATACAAACTCAAAACCACAACTCTCTCGCATCGGAGTCACCTAGTGCAG	9090 fluorescence intensity (a.u.)
AGTTTTTCCCCTTTCAGGTCATGTGTTCATCAAGTCCTGTCGGAGTCACCTAGTGCAG	9310 fluorescence intensity (a.u.)
GTTTTAAGATCCAACTCTTTGACCAATAATATTCTTTTATCGGAGTCACCTAGTGCAG	9960 fluorescence intensity (a.u.)
AAACCTGAAAACCCTCGCCGCTTCTCCCCGTCCTTCCTTTCGGAGTCACCTAGTGCAG	8160 fluorescence intensity (a.u.)
ATCCTCTGACTTTGACTCATTCCCTCTATTTTGCGTCACTCGGAGTCACCTAGTGCAG	13700 fluorescence intensity (a.u.)
TTTAGCTGAGTCTGACAATTACTATCTCCGTTTCAAATTACGGAGTCACCTAGTGCAG	8710 fluorescence intensity (a.u.)
GGGGCAGTTTTGTCAGATCAGAAGCGGTGGCAGAACGGTGCGGAGTCACCTAGTGCAG	8310 fluorescence intensity (a.u.)

Sequence	binding signal
GTCTCCTCGGGCCATTCTCTCGCCGGATTCGGATCCCGCGCGGAGTCACCTAGTGCAG	13200 fluorescence intensity (a.u.)
ACAGGCCTCCATCCATCGATCAACAGTTTATTCAGCGCATCGGAGTCACCTAGTGCAG	9050 fluorescence intensity (a.u.)
AAGATCACCATCCATTGCCCAATTCGCCGTCGTCGTCTTCCGGAGTCACCTAGTGCAG	8320 fluorescence intensity (a.u.)
GCCTCAGCCTCTCCATCAGAGCTACGCAATCTTGTTTTCTCGGAGTCACCTAGTGCAG	8980 fluorescence intensity (a.u.)
ATTATGTTCTTATGGGTTGTCTTACGGGTTGTGACTGCGCCGGAGTCACCTAGTGCAG	9560 fluorescence intensity (a.u.)
AGTTATTGTTAAATCTTGGGCTGTGTTAAATGTTGGTTTTCGGAGTCACCTAGTGCAG	9720 fluorescence intensity (a.u.)
CCACCAATCCACCACCGCCACGCCACTTCACCCTTGTTTTCGGAGTCACCTAGTGCAG	9810 fluorescence intensity (a.u.)
TGTCCACCGCCACGAAATCCTGCAGACACACGGCACACTCCGGAGTCACCTAGTGCAG	12400 fluorescence intensity (a.u.)
GCACCGGCGCCACCGCCCGCGCCCGCACCACCGCCCACGCCGGAGTCACCTAGTGCAG	8870 fluorescence intensity (a.u.)
GTGGTCACCCTAAGCCCTGGCTGCCTCCATCGCGGAGGTGCGGAGTCACCTAGTGCAG	8830 fluorescence intensity (a.u.)
CTTCCAACTAGATTAAGATGTTTGCTGACTGAGTTATTCACGGAGTCACCTAGTGCAG	8020 fluorescence intensity (a.u.)
ATTCCATCCACATACTTCTGCCCATTCGGAACCCACTAGGCGGAGTCACCTAGTGCAG	8680 fluorescence intensity (a.u.)
CGTATCATTGCCATCTACTGGCCCCATCCTACTACTACTCCGGAGTCACCTAGTGCAG	8430 fluorescence intensity (a.u.)
AAGAAGGGGAGTGGATTGTATAGGGGTGGATGGGGATCGACGGAGTCACCTAGTGCAG	13400 fluorescence intensity (a.u.)
GTCATGTCACTATGCATCTCACACTTCTCTCTCCATCCCCCGGAGTCACCTAGTGCAG	8810 fluorescence intensity (a.u.)
ACCATTCCATTCCATTCGATCCATTCTAGCTAGCTTATCTCGGAGTCACCTAGTGCAG	9610 fluorescence intensity (a.u.)
GCCGTCCCTTTCGGTTTCATCATCGATCGGTTTCATCCACCGGAGTCACCTAGTGCAG	8180 fluorescence intensity (a.u.)
CTCCACCGCAACGTCCACCTCGGCGAGATCGCCGGCGAGCCGGAGTCACCTAGTGCAG	9710 fluorescence intensity (a.u.)
CTTTTCCGTTTTGGTTTCTATCTCTCAGTCCGTCTGTGTACGGAGTCACCTAGTGCAG	12100 fluorescence intensity (a.u.)
ACCACTGCCTCTCTGCTCCGGCTCTCCGCCTCTCCTGACTCGGAGTCACCTAGTGCAG	10300 fluorescence intensity (a.u.)
TTTTGCTTCACTAAAATTTGAAGTGTCCTTGTCCAACAATCGGAGTCACCTAGTGCAG	8460 fluorescence intensity (a.u.)
